Results are given in words; binding and its absence hold for the method and conditions named. Some entries that bind do so weakly or less than the wild type.
Columns and labels:
[1] = molecular target: cyclin D2-Cdk4 complex (baculovirus produced, co-infected Sf9 cells) (UniProt P30280); experiment: sequestering of p27 from heat treated lysates by cyclin D2-Cdk4
[2] = molecular target: cyclin D2-Cdk4 complex (baculovirus produced, co-infected Sf9 cells) (UniProt P30280); experiment: anti-Cdk4 immunoprecipitation of supernatants of extracts that received cyclin D2-Cdk4
[3] = molecular target: cyclin D2-Cdk4 complex (baculovirus produced, co-infected Sf9 cells) (UniProt P30280); experiment: anti-Cdk4 immunoprecipitation of 35S-labelled extracts that received cyclin D2-Cdk4, SDS-PAGE

Protein sequences, listed by entry. Tags and fused reporters are not part of them. Lines headed by an entry give the natural chain unless they say otherwise; changes in a name come on top.
UniProt P30280: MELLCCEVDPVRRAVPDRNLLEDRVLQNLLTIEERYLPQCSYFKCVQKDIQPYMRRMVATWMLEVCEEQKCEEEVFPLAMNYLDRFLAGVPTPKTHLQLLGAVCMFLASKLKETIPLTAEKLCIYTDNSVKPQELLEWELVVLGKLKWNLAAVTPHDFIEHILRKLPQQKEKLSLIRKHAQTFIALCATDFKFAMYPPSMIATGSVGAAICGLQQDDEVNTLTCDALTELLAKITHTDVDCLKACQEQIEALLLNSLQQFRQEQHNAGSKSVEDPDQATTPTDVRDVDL
UniProt P46529: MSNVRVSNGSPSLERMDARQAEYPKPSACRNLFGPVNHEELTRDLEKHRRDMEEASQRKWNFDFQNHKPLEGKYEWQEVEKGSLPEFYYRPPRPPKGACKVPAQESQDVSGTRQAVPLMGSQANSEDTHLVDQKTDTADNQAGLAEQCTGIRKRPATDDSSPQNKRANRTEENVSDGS

Measured: binding

p27 protein, the 27 kD cyclin E-Cdk2 binding protein of Mv1Lu mink epithelial cells (endogenous) (from UniProt P46529 1-178)
binds: all assays above
